Measured values published in publication PMC5472405.
No constants are given. Whether binding was seen depends on the method and setting. Some results given as binding are weak or reduced against the parent protein; the word gives no strength.

By UniProt entry, the sequences of proteins in these tests, tags left out.
UniProt P61073: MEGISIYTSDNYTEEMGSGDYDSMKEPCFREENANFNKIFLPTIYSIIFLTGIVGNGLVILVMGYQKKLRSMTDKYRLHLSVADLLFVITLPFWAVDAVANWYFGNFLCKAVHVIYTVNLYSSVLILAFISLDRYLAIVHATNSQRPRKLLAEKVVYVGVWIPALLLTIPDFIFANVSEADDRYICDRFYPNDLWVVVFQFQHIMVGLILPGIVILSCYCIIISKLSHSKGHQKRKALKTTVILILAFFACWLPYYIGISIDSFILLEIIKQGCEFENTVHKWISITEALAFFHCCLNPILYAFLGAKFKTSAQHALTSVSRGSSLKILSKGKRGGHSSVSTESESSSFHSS

Target: CXC chemokine receptor 4 (CXCR4) on lentiviral particles (UniProt P61073)
Test: SPR; displacement: sequential injection of increasing concentrations of one chemokine onto CXCR4 particle chips pretreated with a single concentration of the other chemokine; only the binder purified

B1: CXC chemokine ligand 14 (CXCL14), synthetic (ligand, UniProt O95715 35-111)
chain: SKCKCSRKGPKIRYSDVKKLEMKPKYPHCEEKMVIITTKSVSRYRGQEHCLHPKLQSTKRFIKWYNAWNEKRRVYEE
  binding: binds
